A short description of the data set: Change in bodyweight and food intake after chronic immobilization stress (CIS) and glutamine supplementation. The data set is classed as in vivo, mouse. The note with it: glutamine 150 mg/kg of feed, 15 days. As to the method: In the present invention, C57BL/6 male mice (7-weeks old, KOATECH, South Korea) were kept under standard conditions (i.e., temperature of 22 to 24° C., humidity of 50 to 70%, and 12-hour light/dark cycle with lighting on 6 AM), and the animals were allowed to have free access to diets and water. The animals used for the present invention were handled according to the protocol (GNU-161128-M0068) acknowledged by Gyeongsang National University Institutional Animal Care and Use Committee (GNU IACUC), which follows the guidelines of National Institutes of Health (NIH, Bethesda, MD, USA). Control (CTL) is a group which received normal diet (common diet with nutritional balance) without any stress, CTL+Gln group is a normal diet group supplemented with glutamine (150 mg/kg of feed) and without any stress, STR is a normal diet group under stress, and STR+Gln group is a normal diet group supplemented with glutamine (150 mg/kg of feed) under stress. […] By using the above first cohort, a change in bodyweight and a food intake were measured for each animal model group (28 animals in total, i.e., 7 animals per group), in which the measurement was made, with an interval of 2 days, for 15 days of applying stress.

`NC(=O)CC[C@H](N)C(=O)O` [glutamine]: where the note is “with vs without glutamine supplementation”, the change in bodyweight result is recorded as “hardly affected”. Further, the food intake entry (CTL, CTL+Gln, STR and STR+Gln groups) is reported as “almost no difference”.
